Reference: PMC8491023
These are yes or no findings as the source states them, for the method shown. Binding seen in cells or lysates may run through a third protein. Binding can be weak; no strength is given. Tags and fused reporters may be left off the sequences shown.

Legend:
[1] = target: T1, EDS1-Cluc (Arabidopsis thaliana) (UniProt Q9SU72); assay: split reporter; split luciferase complementation with EDS1-Cluc and ADR1-L1-Nluc co-expressed, with or without addition of HA-TurboID-ADR1(1C) (Supplemental Figure S9, B and C)
T1 sequence: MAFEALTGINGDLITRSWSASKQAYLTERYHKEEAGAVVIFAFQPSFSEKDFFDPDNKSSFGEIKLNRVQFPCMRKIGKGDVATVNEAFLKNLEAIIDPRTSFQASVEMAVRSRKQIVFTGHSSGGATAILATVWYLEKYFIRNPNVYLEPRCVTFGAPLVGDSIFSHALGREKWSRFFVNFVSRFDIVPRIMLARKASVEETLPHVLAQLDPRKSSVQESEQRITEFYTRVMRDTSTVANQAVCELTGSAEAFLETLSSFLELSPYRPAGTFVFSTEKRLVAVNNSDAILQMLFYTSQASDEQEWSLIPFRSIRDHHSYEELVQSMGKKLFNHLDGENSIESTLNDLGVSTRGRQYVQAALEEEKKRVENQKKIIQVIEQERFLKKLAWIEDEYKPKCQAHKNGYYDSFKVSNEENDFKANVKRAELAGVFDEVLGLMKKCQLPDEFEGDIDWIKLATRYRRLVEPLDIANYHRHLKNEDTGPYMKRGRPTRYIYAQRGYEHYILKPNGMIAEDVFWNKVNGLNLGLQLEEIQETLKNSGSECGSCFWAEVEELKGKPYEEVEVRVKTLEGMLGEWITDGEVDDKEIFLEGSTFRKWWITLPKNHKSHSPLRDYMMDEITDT

[2] = target: T1, EDS1-Cluc (Arabidopsis thaliana); assay: split reporter; split luciferase complementation (SLC) assay in N. benthamiana; Nluc and Cluc fusions co-expressed
[3] = target: T2, PAD4 (split luciferase construct) (Arabidopsis thaliana) (UniProt Q9S745); assay: as above
T2 sequence: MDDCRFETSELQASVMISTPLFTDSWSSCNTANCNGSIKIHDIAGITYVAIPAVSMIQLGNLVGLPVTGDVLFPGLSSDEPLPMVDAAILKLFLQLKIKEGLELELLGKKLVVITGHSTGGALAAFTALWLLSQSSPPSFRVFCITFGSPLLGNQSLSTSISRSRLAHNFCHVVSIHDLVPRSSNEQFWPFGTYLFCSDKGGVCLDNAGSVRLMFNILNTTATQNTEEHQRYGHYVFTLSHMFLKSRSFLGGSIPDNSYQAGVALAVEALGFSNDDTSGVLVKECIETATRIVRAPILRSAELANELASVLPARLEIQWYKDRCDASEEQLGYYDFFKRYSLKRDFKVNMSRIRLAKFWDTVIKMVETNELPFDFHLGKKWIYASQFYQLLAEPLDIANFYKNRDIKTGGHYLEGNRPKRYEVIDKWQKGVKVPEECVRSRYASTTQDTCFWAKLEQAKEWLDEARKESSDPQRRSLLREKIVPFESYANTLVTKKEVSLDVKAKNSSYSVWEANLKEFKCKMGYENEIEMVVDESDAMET

Measured: binding

ADR1-L1-Nluc (Arabidopsis thaliana) (receptor)
binds: all assays above
